Data as given in PubChem BioAssay AID504786 (Drosophila RNAi Screening Center, 2011)
The screen tested about 21,000 reagents; shown is an unselected part of those that have a named target and a result. 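Primary screen; positive scores mean lost reporter signal, so the sign may be inverted from the usual convention.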 Names joined by + are all predicted targets of the reagent. Not all columns of the deposit are shown. No sequences are given here.

Screen: 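Positive regulators of HIF-driven reporter output in Drosophila cells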 (primary screen)
Cell system: Drosophila S2 cells with a stable HIF luciferase reporter
Knock-down reagent: long dsRNA against Drosophila genes, about 0.2 µg dsRNA per well of a 384-well plate
Timing: three days of knock-down, then 20 h of DFO before reading
Conditions: desferrioxamine (DFO) at 100 µM, an iron chelator that mimics hypoxia, for 20 h
Measured: 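HIF reporter luminescence in cells given 100 µM DFO for 20 h, using the mouse ldh-a hypoxia-response element, scored as per-plate z-scores; higher means greater loss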
Reading the numbers: z-score: higher = stronger loss of HIF reporter signal

After knock-down of inaC (inactivation no afterpotential C) [DRSC07632], the record shows z-score, replicate 1 = -0.3.
Depletion of CG13506 [DRSC04150] came out at: z-score, replicate 1 = -0.3.
Silencing of Gr43a (Gustatory receptor 43a) [DRSC06658] gave: z-score, replicate 1 = -0.3.
With knock-down of COX6B (Cytochrome c oxidase subunit 6B) [DRSC19590] the results were z-score, replicate 1 = 0.9.
Knock-down of Gapvd1 (GTPase activating protein and VPS9 domains 1) [DRSC19752] came out at: z-score, replicate 1 = -0.1.
IntS2 (Integrator 2) [DRSC20094] scored z-score, replicate 1 = 0.8.
With knock-down of CG7997 [DRSC07052] the results were z-score, replicate 1 = -0.1.
With knock-down of CG30398 [DRSC03891] the results were z-score, replicate 1 = -0.6.
With knock-down of ntc (nutcracker) [DRSC08166] the results were z-score, replicate 1 = -0.3.
For CG4669 [DRSC10440], the entry reads z-score, replicate 1 = -0.4.
Tsp42Eb + CG30160 [DRSC04961] scored z-score, replicate 1 = -0.3.
After knock-down of Tsp42Eb + CG30160 [DRSC06791], the screen gave z-score, replicate 1 = -0.3.
After knock-down of ValRS-m (Valyl-tRNA synthetase, mitochondrial) [DRSC10535], the screen gave z-score, replicate 1 = 0.6.
Silencing of CG14712 [DRSC14935] resulted in: z-score, replicate 1 = -0.5.
With knock-down of Ndc1 (Nuclear division cycle 1) [DRSC15895], the screen gave z-score, replicate 1 = 0.
After knock-down of CG32512 [DRSC20519], the screen gave z-score, replicate 1 = -0.5.
Against CG32512 [DRSC20551], the values are z-score, replicate 1 = -0.5.
Silencing of Dus3 (Dihydrouridine synthase 3) [DRSC02059] came out at: z-score, replicate 1 = -0.2.
CG15029 (retired record) [DRSC19610] showed z-score, replicate 1 = -0.3.
Knock-down of CG5961 [DRSC15927] resulted in: z-score, replicate 1 = -0.4.
dyl (dusky-like) [DRSC08466] showed z-score, replicate 1 = -0.4.
Depletion of dyl (dusky-like) [DRSC08467] gave: z-score, replicate 1 = -0.1.
After knock-down of Elp1 (Elongator complex protein 1) [DRSC14250], the screen gave z-score, replicate 1 = -0.3.
For CG15914 [DRSC19739] the deposit lists z-score, replicate 1 = -0.2.
CG4546 [DRSC15593] gave z-score, replicate 1 = 0.
After knock-down of NfI (Nuclear factor I) [DRSC17158], the record shows z-score, replicate 1 = -0.3.
Knock-down of cpx (complexin) [DRSC11999] resulted in: z-score, replicate 1 = -0.3.

Part of the list above, set out differently.
{"Target gene": "Tsp42Eb + CG30160", "DRSC id": "DRSC04961", "z-score, replicate 1": -0.3}
{"Target gene": "Tsp42Eb + CG30160", "DRSC id": "DRSC06791", "z-score, replicate 1": -0.3}
{"Target gene": "ValRS-m (Valyl-tRNA synthetase, mitochondrial)", "DRSC id": "DRSC10535", "z-score, replicate 1": 0.6}
{"Target gene": "CG14712", "DRSC id": "DRSC14935", "z-score, replicate 1": -0.5}
